# Test results: US7872040B2, “Receptor blocker and vasodilator comprising indole derivative as active ingredient” (priority 2004, dated 2011)
# Some results were stated once for a whole list of compounds, not compound by compound. At least one structure is not confirmed: it was looked up by name or label, or the drawing left a doubt.
# Test system: α2-adrenoceptor
# Assay: Relaxation of clonidine-induced contraction of isolated rat thoracic aorta ring preparations (α2-receptor antagonistic and vasodilator effect)
# Conditions: sample 10^-5 M
# From the text: (1) Preparation of Blood Vessel
# Male Wistar rats were euthanized by cervical dislocation under ether anesthesia or without anesthesia and then exsanguinated by cutting the carotid arteries. Immediately thereafter, the thoracic aortae were isolated by thoracotomy. The isolated preparations were held in Krebs-Hepes solutions [mM: NaCl, 126.9; KCl, 5.9; CaCl2, 2.36; MgCl2, 1.18; Hepes, 10.03; glucose, 11.8 (pH=7.4)] gassed with O2 (100%). The connective tissues and adipose tissues were carefully removed under a stereoscopic microscope. Then, the aortic tissue was cut into ring preparations approximately 2 mm in length to use in the experiment. The vascular endothelium was not removed.
# (2) Measurement of Muscle Contractile/Relaxant Response
# The blood vessel preparations were held in an organ bath (UC-5TD, UFER™ Medical Instrument, Kyoto, Japan) containing 5 ml of Normal Tyrode's solution gassed with 95% O2-5% CO2. Two stainless hooks were used to suspend the preparations. Tension changes were recorded isometrically via tension transducers (T7-8-240, ORIENTEC Co., Ltd, Tokyo, Japan; and TB-611T, NIHON KOHDEN Corp., Tokyo, Japan) and amplifiers (AP-600G and AP-621G, NIHON KOHDEN Corp., Tokyo, Japan; and MSC-2, Labo Support Corporation, Osaka, Japan). Passive tension was set to the optimum tension of 2.0 g. […]
# The results were expressed as mean±standard error.
row,SMILES,vasodilatory effect
1,"O=C(CCCc1c[nH]c2ccccc12)NC12CC3CC(CC(C3)C1)C2 [compound 18, N-adamantyl-4-(indole-3-yl)butaneamide]",strong vasodilatory effect
2,"O=C(CCCc1c[nH]c2ccccc12)NC12CC3CC(CC(C3)C1)C2 [compound 23, N-adamantyl-4-(indole-3-yl)butaneamide]",strong vasodilatory effect
